T1: mouse Nucleoredoxin Cys208Ser (mouse) (UniProt P97346)
T1 sequence: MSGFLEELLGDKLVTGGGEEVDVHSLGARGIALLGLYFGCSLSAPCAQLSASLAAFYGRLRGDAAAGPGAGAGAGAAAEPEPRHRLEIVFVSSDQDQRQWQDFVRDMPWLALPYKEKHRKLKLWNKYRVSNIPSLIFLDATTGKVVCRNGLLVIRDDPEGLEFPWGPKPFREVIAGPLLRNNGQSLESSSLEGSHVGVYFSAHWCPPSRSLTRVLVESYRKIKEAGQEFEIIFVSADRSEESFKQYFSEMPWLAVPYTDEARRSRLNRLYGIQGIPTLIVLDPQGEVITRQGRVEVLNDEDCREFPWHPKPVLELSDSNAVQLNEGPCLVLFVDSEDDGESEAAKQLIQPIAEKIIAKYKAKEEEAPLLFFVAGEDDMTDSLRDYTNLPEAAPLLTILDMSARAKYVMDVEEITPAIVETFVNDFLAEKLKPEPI

B1: Serine/threonine-protein phosphatase 5 (mouse) (protein, UniProt Q60676 1-499)
chain: MAMAEGERTECAETPRDEPPADGTLKRAEELKTQANDYFKAKDYENAIKFYSQAIELNPGNAIYYGNRSLAYLRTECYGYALGDATRAIELDKKYIKGYYRRAASNMALGKFRAALRDYETVVKVKPNDKDAKMKYQECSKIVKQKAFERAIAGDEHRRSVVDSLDIESMTIEDEYSGPKLEDGKVTITFMKDLMQWYKDQKKLHRKCAYQILVQVKEVLCKLSTLVETTLKETEKITVCGDTHGQFYDLLNIFELNGLPSETNPYIFNGDFVDRGSFSVEVILTLFGFKLLYPDHFHLLRGNHETDNMNQIYGFEGEVKAKYTAQMYELFSEVFEWLPLAQCINGKVLIMHGGLFSEDGVTLDDIRKIERNRQPPDSGPMCDLLWSDPQPQNGRSVSKRGVSCQFGPDVTKAFLEENQLDYIIRSHEVKAEGYEVAHGGRCVTVFSAPNYCDQMGNKASYIHLQGSDLRPQFHQFTAVPHPNVKPMAYANTLLQLGMM
B2: Isoleucine-tRNA ligase, mitochondrial (mouse) (protein, UniProt Q8BIJ6 49-1012)
chain: DSPQSSSKGGRYRDTVLLPQTSFPMKLLGRQQSDMELEIQQKCGFSELYSWQRERKVKTEFCLHDGPPYANGDPHVGHALNKILKDIANRFHMMRGSKVHFVPGWDCHGLPIETKVLSELGVDAQSLSAMEIREKARSFAQAAIEKQKSAFVRWGVMADWNNCYYTFDPKYEAKQLRVFYQMYEKGLVYRSYKPVYWSPSSRTALAEAELEYNPEHVSRSIYVRFPLLRPPPKLESLTDASSPVSVLVWTTQPWTIPANQAICYMPEAKYAVVKCSASGHLYILAEDKIAPVASALETTFDVVAAFSGVDLEGGTCSHPLTPDKVSPLLPATHVTMAKGTGLVHTAPAHGMEDYSVASQHSLPMDCLVDEGGMFTDAAGPELQNKAVLKEGTDVVIKMLQATKNVLKEENIVHSYPCDWRTKTPVLIRASKQWFVNITDIKAAAKESLKTVKFIPGAALNSMTDMLDRRPYWCISRQRVWGVPIPVFHHKTKDEYLINSQTTEHIIKLVEQHGSDVWWTLPAEQLLPAEVLAQAGGPGALEYAPGQDILDIWFDSGTSWSCVLQDTQQRADLYLEGKDQLGGWFQSSLLTSVATRSKAPFRTVMVHGFTLGEKGEKMSKSLGNVINPDTIISGGKDHSKEPPYGADILRWWIAESNVFTEVTIGPSVLSAARDDISKLRNTLRFLLGNLTGFNPETDSVPVKNMYVIDQYMLHLIQDFATKITDSYKQYDFGKVVRLLKAFYTRELSSFYFSIVKDRLYCENEKDPKRRSCQTALAEILDVLVRAFAPILPHLAEEVFQHIPYVTEPKSVFRTGWINTSSIWKKPGLEEAVESACAMRDSFLGSIPGKNAAEYEVIIVIEPGLLFEIMEMLQAEETSSTSQLNELMMASQTTLLAQEPRERTAGDIELTGTFVINLEGGDIREESSYKVIVVPTAREKCPRCWKHTSETADALCPRCAEVIGAK
B3: Xaa-Pro dipeptidase (mouse) (protein, UniProt Q11136 1-493)
chain: MASTVRPSFSLGNETLKVPLALFALNRQRLCERLRKNGAVQAASAVVLQGGEEMQRYCTDTSIIFRQESFFHWAFGVVESGCYGVIDVDTGKSTLFVPRLPDSYATWMGKIHSKEYFKEKYAVDDVQYTDEIASVLTSRNPSVLLTLRGVNTDSGSVCREASFEGISKFNVNNTILHPEIVECRVFKTDMELEVLRYTNRISSEAHREVMKAVKVGMKEYEMESLFQHYCYSRGGMRHTSYTCICCSGENAAVLHYGHAGAPNDRTIKDGDICLFDMGGEYYCFASDITCSFPANGKFTEDQKAIYEAVLRSCRTVMSTMKPGVWWPDMHRLADRIHLEELARIGLLSGSVDAMLQVHLGAVFMPHGLGHFLGLDVHDVGGYPEGVERIDEPGLRSLRTARHLEPGMVLTVEPGIYFIDHLLDQALADPAQACFFNQEVLQRFRNFGGVRIEEDVVVTDSGMELLTCVPRTVEEIEACMAGCDKASVPFSGQK
B4: Ran-binding protein 3 (mouse) (protein, UniProt Q9CT10 1-491)
chain: MADLANEEKPAVAPSVFVFQKDKGQKRSAGSSSPEAGEDSDHEDGNYCPPVKRERTSSLTHSEEKSSGFRLKPPTLIHGQAPSAGLPSQKPREQQRGVLRPAVLQAPQPKVLSQTVPSSGTNGVSMPADCTGPATSVSPENLTQRSPSESAEETHTLEEKVPQKTPHGTSEEGHCEEEQAAPQAFVFGQNLRDRVKLMNENASVADVDSAAHPSSETPSATNYFLQYISSSADNATHSADNSTKFVFGQNMSERVLSPPKLNEANSDTSRETTHAQSGSESSSQEAAPKKESLAESAAAYTKATAWTCLLEKVEVITGEEAESNVLQIQCKLFVFDKTSQSWVERGRGLLRLNDMASTDDGTLQSRLVMRTQGSLRLILNTKLWAQMQMDKASEKSIRITATDAEDQGVKVFLISASSKDTGQLYAALHHRILALRSRAEQEQEAKAPPPEPGATRATEEEDSDEDAVLAPSGVTGAGTGDEGDGQAPGST
B5: Nucleosome assembly protein 1-like 1 (mouse) (protein, UniProt P28656 1-391)
chain: MADIDNKEQSELDQDLEDVEEVEEEETGEETKIKARQLTVQMMQNPQILAALQERLDGLVDTPTGYIESLPKVVKRRVNALKNLQVKCAQIEAKFYEEVHDLERKYAVLYQPLFDKRFEIINAIYEPTEEECEWKPDEEDEVSEELKEKAKIEDEKKDEEKEDPKGIPEFWLTVFKNVDLLSDMVQEHDEPILKHLKDIKVKFSDAGQPMSFVLEFHFEPNDYFTNEVLTKTYRMRSEPDDSDPFSFDGPEIMGCTGCQIDWKKGKNVTLKTIKKKQKHKGRGTVRTVTKTVSNDSFFNFFAPPEVPENGDLDDDAEAILAADFEIGHFLRERIIPRSVLYFTGEAIEDDDDDYDEEGEEADEEGEEEGDEENDPDYDPKKDQNPAECKQQ
B6: Arginine-tRNA ligase, cytoplasmic (mouse) (protein, UniProt Q9D0I9 1-660)
chain: MDGLVAQCSARLLQQEREIKALTAEIDRLKNCGCLEASPSLEQLREENLKLKYRLNILRRSLQEERRKPTKNMININSRLQEVFGCAIRAAYPDLENPPLIVTPSQQPKFGDYQCNSAMGISQMLKAKEQKVSPREIAENITKHLPNNKYIDKVEIAGPGFINVHLRKDFVSEQLTSLLVNGVQLPVLGDKEKVIVDFSSPNIAKEMHVGHLRSTIIGESMSRLFEFAGYDVLRLNHVGDWGTQFGMLIAHLQDKFPDYLTVSPPIGDLQAFYKESKKRFDADEEFKKRAYQCVVLLQSKNPDIMKAWNLICDVSREEFKKIYDALDITLIERGESFYQDRMKDIVKEFEDKGFVQVDDGRKIVFVPGCSVPLTIVKSDGGYTYDTSDLAAIKQRLFEEKANKIIYVVDNGQAIHFQTIFAAAQMIGWYDPKVTLVTHVGFGVVLGEDKKKFKTRSGETVRLMDLLEEGLKRSMDKLKEKERDKVLTEEELKAAQTSVAYGCIKYADLSHNRLNDYIFSFDKMLDDRGNTAAYLLYAFTRIRSIARLANIDEAMLQRAARETKIILDHEKEWKLGRCILRFPEILQKILDDLFLHTLCDYIYELATTFTEFYDSCYCVEKDRQTGKVLKVNMWRMLLCEAVAAVMAKGFDILGIKPVQRM
B7: Septin-7 (mouse) (protein, UniProt O55131 1-436)
chain: MSVSARSAAAEERSVNCGTMAQPKNLEGYVGFANLPNQVYRKSVKRGFEFTLMVVGESGLGKSTLINSLFLTDLYSPEYPGPSHRIKKTVQVEQSKVLIKEGGVQLLLTIVDTPGFGDAVDNSNCWQPVIDYIDSKFEDYLNAESRVNRRQMPDNRVQCCLYFIAPSGHGLKPLDIEFMKRLHEKVNIIPLIAKADTLTPEECQQFKKQIMKEIQEHKIKIYEFPETDDEEENKLVKKIKDRLPLAVVGSNTIIEVNGKRVRGRQYPWGVAEVENGEHCDFTILRNMLIRTHMQDLKDVTNNVHYENYRSRKLAAVTYNGVDNNKNKGQLTKSPLAQMEEERREHVAKMKKMEMEMEQVFEMKVKEKVQKLKDSEAELQRRHEQMKKNLEAQHKELEEKRRQFEEEKANWEAQQRILEQQNSSRTLEKNKKKGKIF
B8: Thioredoxin reductase 1, cytoplasmic (mouse) (protein, UniProt Q9JMH6 1-613)
chain: MPVDDCWLYFPASRGRTFVQTVWVAPTCPNCCWFPGFLPPVPRPPHVPRVLLRGPRGAVLPASRPSKTLPSSSQTPCPTDPCICPPPSTPDSRQEKNTQSELPNKKGQLQKLPTMNGSKDPPGSYDFDLIIIGGGSGGLAAAKEAAKFDKKVLVLDFVTPTPLGTRWGLGGTCVNVGCIPKKLMHQAALLGQALKDSRNYGWKVEDTVKHDWEKMTESVQSHIGSLNWGYRVALREKKVVYENAYGRFIGPHRIVATNNKGKEKIYSAERFLIATGERPRYLGIPGDKEYCISSDDLFSLPYCPGKTLVVGASYVALECAGFLAGIGLDVTVMVRSILLRGFDQDMANKIGEHMEEHGIKFIRQFVPTKIEQIEAGTPGRLRVTAQSTNSEETIEGEFNTVLLAVGRDSCTRTIGLETVGVKINEKTGKIPVTDEEQTNVPYIYAIGDILEGKLELTPVAIQAGRLLAQRLYGGSNVKCDYDNVPTTVFTPLEYGCCGLSEEKAVEKFGEENIEVYHSFFWPLEWTVPSRDNNKCYAKIICNLKDDERVVGFHVLGPNAGEVTQGFAAALKCGLTKQQLDSTIGIHPVCAEIFTTLSVTKRSGGDILQSGCUG
B9: Peroxiredoxin-1 (mouse) (protein, UniProt P35700 1-199)
chain: MSSGNAKIGYPAPNFKATAVMPDGQFKDISLSEYKGKYVVFFFYPLDFTFVCPTEIIAFSDRADEFKKLNCQVIGASVDSHFCHLAWINTPKKQGGLGPMNIPLISDPKRTIAQDYGVLKADEGISFRGLFIIDDKGILRQITINDLPVGRSVDEIIRLVQAFQFTDKHGEVCPAGWKPGSDTIKPDVNKSKEYFSKQK
B10: 3-Hydroxyacyl-CoA dehydrogenase type-2 (mouse) (protein, UniProt O08756 1-261)
chain: MAAAVRSVKGLVAVVTGGASGPWLATAKRLVGQGATAVLLDVPDSEGESQAKKLGESCIFAPANVTSEKEIQAALTLAKEKFGRIDVAVNCAGIAVAIKTYHQKKNKIHTLEDFQRVINVNLIGTFNVIRLVAGEMGQNEPDQGGQRGVIINTASVAAFEGQVGQAAYSASKGGIDGMTLPIARDLAPTGIRVVTIAPGLFATPLLTTLPEKVRNFLASQVPFPSRLGDPAEYAHLVQTIIENPFLNGEVIRLDGAIRMQP

Results are given in words; binding and its absence hold for the method and conditions named. Binding seen in cells or lysates may run through a third protein. A yes stands for co-enrichment or nearness to the bait. Other partners may have been found.

The target of the test is T1, mouse Nucleoredoxin Cys208Ser (mouse). Briefly: affinity purification with mass spectrometry; intermediate trapping: mNrx Cys208Ser coupled to CNBr-activated sepharose and reduced with 10 mM DTT; mouse brain extract (Black 6 C57J mice, NP40 lysis buffer) 2 h at 4°C; washed with 100 mM Tris, 300 mM NaCl, pH 8 and TE buffer; trapped proteins (mixed disulfide) eluted with 10 mM DTT and 10 mM TCEP; only the target purified.
For B1, the binding result is “binds”. Take B2: the binding entry is “binds”. As for B3, the entry is “binds”; as for B4, “binds”; as for B5, “binds”. For B6 the value was “binds”; for B7, “binds”. As for B8, the entry is “binds”; as for B9, “binds”. Regarding B10, the binding result is listed as “binds”.

The values above are taken from article PMC6280245.
